Data reported in patent US5574008A (Eli Lilly and Company, priority 1994, dated 1996).
HELM strings list residues between dots; [ac] is acetyl, [am] amide, other brackets name non-standard units.

Tests used:
[1] = general procedure: Boc solid-phase peptide synthesis; MBHA resin (0.77 mmol/g) for C-terminal amides; PAM resin for C-terminal acids; symmetric anhydride (DCC initiated) or HOBT activation; double coupling; details: whole synthesis, scale of the general procedure 0.5 mmol
[2] = general procedure: Boc solid-phase peptide synthesis; MBHA resin; symmetric anhydride (DCC initiated) or HOBT activation; double coupling; details: whole synthesis, scale 0.5 mmol

Substance	isolated yield [1]	final HPLC purity ([2]; analytical HPLC)	isolated mass [2]	isolated yield [2]
PEPTIDE1{E.G.T.F.T.S.D.V.S.S.Y.L.E.G.Q.A.A.K.E.F.I.A.W.L.V.K.G.R.G}$$$$V2.0	11%	–	–	–
PEPTIDE1{E.G.T.F.T.S.D.V.S.S.Y.L.E.G.Q.A.A.K.E.F.I.A.W.L.V.K.G.R.[am]}$$$$V2.0	–	60%	125 mg	11%
GLP-1(R26)(9-36)NH2 (SEQ ID NO:13) (EGTFTSDVSSYLEGQAAKEFIAWLVRGR; C-terminal amide)	4.1%	–	–	–
PEPTIDE1{A.E.G.T.F.T.S.D.V.S.S.Y.L.E.G.Q.A.A.K.E.F.I.A.W.L.V.K.G.R.G}$$$$V2.0	13%	–	–	–
